From US12491217B2, “Compositions and methods for promoting healthy neural development in an unborn baby” (The Regents of the University of California, priority 2019, dated 2025)

Test: Metabolomics of fetal brain at E14.5
Assay type: in vivo, C57Bl/6J mice
Details: metabolite level in E14.5 fetal brain; for fold of change ABX/SPF: ANOVA contrast ABX/SPF; for fold of change GF/ABX: ANOVA contrast GF/ABX; for fold of change GF/SPF: ANOVA contrast GF/SPF; for fold of change GF/Sp: ANOVA contrast GF/Sp; for fold of change Sp/ABX: ANOVA contrast Sp/ABX; for fold of change Sp/SPF: ANOVA contrast Sp/SPF

Compound | fold of change ABX/SPF | fold of change GF/ABX | fold of change GF/SPF | fold of change GF/Sp | fold of change Sp/ABX | fold of change Sp/SPF
N=C(N)NCCC[C@H](N)C(=O)O [compound 371] | 0.88 | 1.06 | 0.93 | 1.06 | 1.00 | 0.88
N=C(NCCC[C@H](N)C(=O)O)N[C@@H](CC(=O)O)C(=O)O [compound 372] | 0.82 | 1.05 | 0.86 | 1.12 | 0.93 | 0.76
NCCC[C@H](N)C(=O)O [compound 375] | 0.77 | 1.19 | 0.92 | 1.11 | 1.08 | 0.84
N=C(N)NCCCC(=O)C(=O)O [compound 379] | 0.80 | 0.97 | 0.78 | 0.95 | 1.02 | 0.82
NC(=O)NCCC[C@H](N)C(=O)O [compound 380] | 0.78 | 0.92 | 0.71 | 0.88 | 1.05 | 0.82
N=C(N)NCCCC[C@H](N)C(=O)O [compound 381] | 0.86 | 0.90 | 0.77 | 0.85 | 1.06 | 0.90
NC(=O)NCCCC[C@H](N)C(=O)O [compound 382] | 0.84 | 0.62 | 0.52 | 0.55 | 1.13 | 0.95
O=C(O)[C@@H]1CCCN1 [compound 383] | 0.87 | 1.06 | 0.93 | 1.13 | 0.94 | 0.82
CC(=O)N[C@@H](CCCNC(=N)N)C(=O)O [compound 387] | 0.86 | 0.93 | 0.80 | 0.96 | 0.98 | 0.84
CC(=O)NCCC[C@H](N)C(=O)O [compound 392] | 0.75 | 0.54 | 0.40 | 0.40 | 1.35 | 1.01
O=C(O)[C@@H]1C[C@@H](O)CN1 [compound 397] | 0.93 | 0.97 | 0.91 | 1.06 | 0.92 | 0.86
O=C(O)C1CC(O)CN1C(=O)C1CCCN1 (stereo not drawn) [compound 399] (H-Pro-[Hyp]-OH; configuration not given here) | 0.67 | 1.03 | 0.69 | 0.85 | 1.22 | 0.81
N=C(N)NCCCC(O)C(=O)O (stereo not drawn) [compound 405] | 0.70 | 0.93 | 0.65 | 0.96 | 0.97 | 0.68
N=C(N)NCC(=O)O [compound 410] | 0.88 | 1.13 | 1.00 | 1.09 | 1.03 | 0.91
CN(CC(=O)O)C(=N)N [compound 411] | 0.82 | 1.01 | 0.83 | 0.94 | 1.07 | 0.88
CN1CC(=O)N=C1N [compound 412] | 0.83 | 1.12 | 0.93 | 1.06 | 1.06 | 0.88
NCCCCN [compound 418] | 0.99 | 0.94 | 0.93 | 1.01 | 0.93 | 0.91
NCCCCNCCCN [compound 421] | 0.77 | 0.94 | 0.73 | 1.02 | 0.93 | 0.71
NCCCNCCCCNCCCN [compound 426] | 0.74 | 0.95 | 0.70 | 1.03 | 0.92 | 0.68
CSC[C@H]1O[C@@H](n2cnc3c(N)ncnc32)[C@H](O)[C@@H]1O [compound 429] | 0.79 | 1.06 | 0.84 | 0.92 | 1.16 | 0.92
CC(=O)NCCCCN [compound 430] | 0.94 | 1.17 | 1.10 | 0.95 | 1.23 | 1.16

Where a SMILES comes first, the peptide text is derived from it. [ ]: non-standard residue; d: D form. Hyp = O=C(O)[CH]1C[CH](O)CN1
